Measurements taken from PMC5391139.

By UniProt entry, the sequences of proteins in these tests, tags left out. Where a name states a change or a piece, a line headed by the entry shows the natural chain unless it says otherwise.
UniProt P61956: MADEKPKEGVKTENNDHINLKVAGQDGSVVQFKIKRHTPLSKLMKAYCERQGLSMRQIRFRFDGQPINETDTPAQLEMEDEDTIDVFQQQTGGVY
UniProt P54252: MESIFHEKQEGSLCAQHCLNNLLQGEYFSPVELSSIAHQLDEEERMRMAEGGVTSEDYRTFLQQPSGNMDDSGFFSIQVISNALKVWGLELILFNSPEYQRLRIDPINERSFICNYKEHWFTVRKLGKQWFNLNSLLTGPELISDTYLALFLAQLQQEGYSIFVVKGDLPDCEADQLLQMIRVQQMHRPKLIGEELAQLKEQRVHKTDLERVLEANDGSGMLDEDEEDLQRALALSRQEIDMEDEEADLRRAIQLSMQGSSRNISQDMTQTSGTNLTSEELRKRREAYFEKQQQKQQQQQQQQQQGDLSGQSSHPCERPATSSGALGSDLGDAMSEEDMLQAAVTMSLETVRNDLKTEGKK

Biological target: recombinant SUMO2 immobilized on agarose beads (UniProt P61956)
Assay: pull-down; recombinant SUMO1 or SUMO2 immobilized on agarose beads incubated with cleared cell lysates (cells with or without 10 ug/ml bleomycin, 1 h) for 2 h at 4°C; EBC buffer (50 mM Tris pH 7.5, 150 mM NaCl, 1 mM EDTA, 1 mM DTT) with 0.5% NP-40 and benzonase; immunoblot; only the target purified

With “endogenous ataxin‐3 (from UniProt P54252 1-361) (enzyme)” the binding was “binds weakly”.

These are yes or no findings as the source states them, for the method shown. Binding seen in cells or lysates may run through a third protein. Binding calls can cover weak binding; strength is not graded here.
